PubChem BioAssay AID1259327 | Drosophila RNAi Screening Center | 2017
Aim: 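Baseline ATP after transmembrane-protein gene knock-down with water vehicle only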. Cell system: Drosophila S2R+ cells. Knock-down reagent: long dsRNA against Drosophila genes. Timing: 5 days (water added on day 4, read one day later). Conditions: water added as vehicle, no metal, one day before read-out. Measurement: 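Total ATP measured by luciferase light, scaled to plate mean, duplicates averaged, then z-scored across plates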. Scale: ATP z-score: higher = more total ATP than typical wells; ATP luminescence: higher = more total ATP. Active means: 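Called active when the ATP z-score exceeds 1.5 or falls below -1.5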. Calls: active = hit: ATP up or down; inactive = no clear ATP change.
In all, the deposit lists about 3,100 reagents; below is a random part of them. 378 of all reagents (12%) were called active. 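Hits include both directions; z-score sign shows ATP rise or fall; raw luminescence values are not plate-normalised.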 Entries without a mark were called inactive. Not given: the amount of reagent.

target gene | DRSC id | ATP z-score, duplicate mean | ATP luminescence, replicate 1 (RLU) | ATP luminescence, replicate 2 (RLU)
ACXC | DRSC00846 | -0.958 | 6.49e5 | 6.00e5
Pex13 | DRSC06877 | 0.212 | 7.85e5 | 7.21e5
CG6790 | DRSC16117 | -0.063 | 7.28e5 | 6.71e5
Sras | DRSC11287 | -0.216 | 8.87e5 | 8.49e5
Ca-alpha1D | DRSC03284 | -0.158 | 4.66e5 | 4.70e5
Ca-alpha1D | DRSC39679 | -0.00244 | 4.54e5 | 4.77e5
CG13575 | DRSC22851 | 0.816 | 7.08e5 | 5.89e5
CG13575 | DRSC39524 | -0.12 | 5.31e5 | 3.63e5
CG5262 | DRSC11773 | 0.652 | 8.48e5 | 7.52e5
CG5262 | DRSC39543 | -0.729 | 4.16e5 | 3.94e5
rost | DRSC03603 | 0.94 | 5.33e5 | 5.57e5
Ir94b | DRSC21439 | 0.408 | 6.08e5 | 6.21e5
CG7720 | DRSC16306 | 0.664 | 8.03e5 | 7.46e5
CG7720 | DRSC16307 | -0.923 | 6.12e5 | 6.44e5
sut2 | DRSC07701 | 0.389 | 7.43e5 | 8.03e5
sut2 | DRSC39500 | -1.31 | 3.63e5 | 3.69e5
CG30265 | DRSC21592 | -2.25 (active) | 3.89e5 | 3.88e5
CG14694 | DRSC14917 | -0.162 | 3.08e5 | 7.04e5
CG32547 | DRSC19263 | -0.784 | 5.22e5 | 5.75e5
CG32547 | DRSC19474 | 0.0774 | 6.45e5 | 8.36e5
VhaPPA1-1 | DRSC16170 | 1.26 | 8.85e5 | 7.87e5
VhaPPA1-1 | DRSC24144 | -0.267 | 8.14e5 | 8.20e5
GABA-B-R3 | DRSC00561 | -0.586 | 6.27e5 | 6.63e5
GABA-B-R3 | DRSC29404 | 0.177 | 8.59e5 | 8.31e5
Arv1 | DRSC11491 | -0.721 | 6.95e5 | 6.69e5
CG32280 | DRSC08024 | 0.00889 | 7.45e5 | 7.42e5
CG32280 | DRSC39889 | -2.36 (active) | 3.49e5 | 4.19e5
mah | DRSC14645 | -0.675 | 2.71e5 | 6.84e5
mah | DRSC28300 | 0.422 | 8.74e5 | 8.72e5
Tre1 | DRSC18726 | 3.15 (active) | 1.07e6 | 6.21e5
Tre1 | DRSC28244 | -0.547 | 8.50e5 | 9.92e5
LBR | DRSC04298 | -0.0444 | 6.67e5 | 7.87e5
LBR | DRSC29462 | -0.777 | 7.60e5 | 7.01e5
CG14621 | DRSC20635 | 0.177 | 7.39e5 | 7.86e5
CG14621 | DRSC27094 | -0.428 | 9.56e5 | 1.07e6
PK1-R | DRSC16577 | -0.985 | 2.29e5 | 7.22e5
Ranbp21 | DRSC19447 | 0.456 | 7.58e5 | 7.48e5
Ranbp21 | DRSC39764 | -0.00995 | 4.89e5 | 4.67e5
foi | DRSC10719 | -0.397 | 8.61e5 | 8.27e5
foi | DRSC29596 | -0.41 | 8.19e5 | 7.32e5
inc | DRSC17954 | 1.07 | 6.12e5 | 7.40e5
inc | DRSC28898 | -0.927 | 7.36e5 | 6.88e5
Culd | DRSC10262 | -0.0758 | 7.08e5 | 7.39e5
Culd | DRSC39624 | -1.3 | 3.61e5 | 3.93e5
ZnT49B | DRSC07225 | -0.542 | 4.99e5 | 6.42e5
ZnT49B | DRSC38001 | -0.217 | 5.83e5 | 5.39e5
Gr8a | DRSC18043 | -0.541 | 7.36e5 | 7.41e5
SPoCk | DRSC11844 | -0.975 | 7.89e5 | 7.48e5
SPoCk | DRSC24007 | 0.331 | 9.24e5 | 8.07e5
Ant2 | DRSC26446 | -1.31 | 6.48e5 | 7.25e5
CG31141 | DRSC13646 | -0.542 | 8.47e5 | 8.04e5
CG31141 | DRSC29508 | 0.0987 | 8.69e5 | 8.03e5
CG6696 | DRSC20004 | -0.252 | 6.83e5 | 7.49e5
CG6696 | DRSC25648 | 1.4 | 9.97e5 | 1.05e6
Gr59d | DRSC22553 | 0.858 | 6.64e5 | 6.41e5
Gr59d | DRSC39897 | -0.652 | 4.98e5 | 5.62e5
CG33116 | DRSC02045 | 0.804 | 6.09e5 | 4.56e5
CG14731 | DRSC14952 | -0.028 | 3.09e5 | 7.31e5
CG14731 | DRSC39683 | -0.377 | 3.89e5 | 4.92e5
CNMaR | DRSC08992 | -1.23 | 5.50e5 | 6.71e5
CNMaR | DRSC10224 | -0.359 | 8.79e5 | 8.20e5
Gr66a | DRSC10783 | 0.267 | 9.58e5 | 9.04e5
Gr66a | DRSC39878 | 0.722 | 5.57e5 | 7.45e5
Osi14 | DRSC12368 | 0.0881 | 9.32e5 | 8.83e5
Osi14 | DRSC26397 | 0.319 | 7.84e5 | 9.62e5
CG12209 | DRSC06119 | -1.59 (active) | 4.86e5 | 4.66e5
FucT6 | DRSC19848 | 0.0194 | 7.19e5 | 6.96e5
FucT6 | DRSC26057 | 0.229 | 8.60e5 | 8.97e5

No new results follow: an excerpt of the list.
target gene | DRSC id | ATP z-score, duplicate mean | ATP luminescence, replicate 1 (RLU) | ATP luminescence, replicate 2 (RLU)
rost | DRSC03603 | 0.94 | 5.33e5 | 5.57e5
Ir94b | DRSC21439 | 0.408 | 6.08e5 | 6.21e5
CG7720 | DRSC16306 | 0.664 | 8.03e5 | 7.46e5
CG7720 | DRSC16307 | -0.923 | 6.12e5 | 6.44e5
sut2 | DRSC07701 | 0.389 | 7.43e5 | 8.03e5
sut2 | DRSC39500 | -1.31 | 3.63e5 | 3.69e5
CG30265 | DRSC21592 | -2.25 (active) | 3.89e5 | 3.88e5
